Patent publication CN111138528A
Results are given in words; binding and its absence hold for the method and conditions named. Some results given as binding are weak or reduced against the parent protein; the word gives no strength.

Sequences of proteins named here, by UniProt entry; tags and fusion partners are left off. Residues count along the entry.
UniProt Q05320, residues 33-650: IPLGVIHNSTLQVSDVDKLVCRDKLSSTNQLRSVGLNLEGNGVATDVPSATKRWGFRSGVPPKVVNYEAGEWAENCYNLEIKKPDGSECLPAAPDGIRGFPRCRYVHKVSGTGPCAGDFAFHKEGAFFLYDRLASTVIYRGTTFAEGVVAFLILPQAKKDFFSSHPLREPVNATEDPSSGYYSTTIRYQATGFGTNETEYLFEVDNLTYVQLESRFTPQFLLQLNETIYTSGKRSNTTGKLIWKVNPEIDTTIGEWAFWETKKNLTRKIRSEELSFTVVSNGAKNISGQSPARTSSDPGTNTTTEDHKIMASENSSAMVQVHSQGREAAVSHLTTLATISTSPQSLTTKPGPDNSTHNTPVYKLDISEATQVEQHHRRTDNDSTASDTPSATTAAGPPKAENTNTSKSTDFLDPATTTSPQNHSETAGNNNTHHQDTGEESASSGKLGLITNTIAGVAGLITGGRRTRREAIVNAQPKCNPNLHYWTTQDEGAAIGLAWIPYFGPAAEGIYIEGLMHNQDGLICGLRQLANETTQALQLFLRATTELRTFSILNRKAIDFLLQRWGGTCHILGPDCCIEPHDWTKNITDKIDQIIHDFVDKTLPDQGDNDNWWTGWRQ

Target: EBOV GP (Ebola virus (EBOV)) (UniProt Q05320)
Assay: ELISA screen, EBOV GP coated at 1 μg/mL, transfected 293T supernatant

B1: 单克隆抗体5A8 (antibody, V domains shown)
VH: EVQLLESGGGLVKPGGSLRLSCAASGFTFSDYYMNWIRQAPGKGLEWVSYISSSGKTIYYADSVKGRFTISRDNAKKSLYLQMNSLRAEDTAVYYCARDREIVISTTILLGSDHYAMDVWGQGTTVTVSS
VL: DIQMTQSPFTLSASVGDRVTITCRASQSINSYLNWYQQKPGKAPKLLIYSASSLQSGVPSRFSGSGSGTDFTLTISSLQPEDFAIYYCQQTYRTPYTFGQGTKVEIKT
  binding: binds
